Our source for the binding values is paper doi:10.1101/2025.05.29.656244.

The chains behind the UniProt entries cited, without tags or fusion partners.
UniProt P10275: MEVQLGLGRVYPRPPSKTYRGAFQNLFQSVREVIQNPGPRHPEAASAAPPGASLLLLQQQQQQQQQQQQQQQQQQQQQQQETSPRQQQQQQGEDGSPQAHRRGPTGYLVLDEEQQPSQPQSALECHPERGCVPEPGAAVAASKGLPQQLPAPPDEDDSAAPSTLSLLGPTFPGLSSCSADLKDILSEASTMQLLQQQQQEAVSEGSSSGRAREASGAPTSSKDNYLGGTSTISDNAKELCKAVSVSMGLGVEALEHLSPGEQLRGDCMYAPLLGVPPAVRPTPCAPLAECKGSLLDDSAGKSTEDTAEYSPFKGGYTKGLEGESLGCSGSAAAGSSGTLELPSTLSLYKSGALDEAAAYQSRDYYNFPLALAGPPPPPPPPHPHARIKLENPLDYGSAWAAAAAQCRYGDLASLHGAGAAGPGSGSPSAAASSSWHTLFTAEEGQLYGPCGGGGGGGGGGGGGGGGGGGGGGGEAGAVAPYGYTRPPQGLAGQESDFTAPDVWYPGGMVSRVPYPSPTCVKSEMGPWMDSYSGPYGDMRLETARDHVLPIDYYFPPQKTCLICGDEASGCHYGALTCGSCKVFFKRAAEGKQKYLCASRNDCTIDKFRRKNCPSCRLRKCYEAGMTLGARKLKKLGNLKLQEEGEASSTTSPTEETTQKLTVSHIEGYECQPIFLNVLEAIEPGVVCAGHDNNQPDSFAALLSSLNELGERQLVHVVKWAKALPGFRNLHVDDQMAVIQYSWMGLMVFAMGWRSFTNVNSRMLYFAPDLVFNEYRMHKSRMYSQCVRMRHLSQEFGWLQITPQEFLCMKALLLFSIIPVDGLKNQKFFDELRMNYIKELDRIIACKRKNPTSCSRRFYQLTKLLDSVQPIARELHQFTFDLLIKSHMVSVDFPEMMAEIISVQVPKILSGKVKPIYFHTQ
UniProt Q92830: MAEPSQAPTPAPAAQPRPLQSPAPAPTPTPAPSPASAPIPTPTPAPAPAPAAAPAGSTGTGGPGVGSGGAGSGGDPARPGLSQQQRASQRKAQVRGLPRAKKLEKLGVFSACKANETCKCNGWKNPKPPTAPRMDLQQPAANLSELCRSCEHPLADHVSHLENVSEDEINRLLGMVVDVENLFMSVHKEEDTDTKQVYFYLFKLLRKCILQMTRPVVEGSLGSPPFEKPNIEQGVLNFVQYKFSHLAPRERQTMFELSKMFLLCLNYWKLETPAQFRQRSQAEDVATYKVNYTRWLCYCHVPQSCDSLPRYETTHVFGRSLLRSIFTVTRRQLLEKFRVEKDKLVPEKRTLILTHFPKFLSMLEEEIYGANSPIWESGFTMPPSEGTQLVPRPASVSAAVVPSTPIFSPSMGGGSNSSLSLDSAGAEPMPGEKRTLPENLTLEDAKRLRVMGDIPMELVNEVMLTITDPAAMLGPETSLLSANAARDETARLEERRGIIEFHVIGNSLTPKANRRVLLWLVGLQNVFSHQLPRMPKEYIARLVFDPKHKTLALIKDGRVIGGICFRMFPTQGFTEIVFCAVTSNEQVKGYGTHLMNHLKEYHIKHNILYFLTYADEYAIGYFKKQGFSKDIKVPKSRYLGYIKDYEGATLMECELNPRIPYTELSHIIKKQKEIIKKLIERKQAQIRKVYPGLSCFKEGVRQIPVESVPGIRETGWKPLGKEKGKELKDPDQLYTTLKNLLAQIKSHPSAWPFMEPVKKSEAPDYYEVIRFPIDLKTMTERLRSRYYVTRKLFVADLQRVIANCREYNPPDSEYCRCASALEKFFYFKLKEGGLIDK

The target of this assay is T1, PTGES3 (human (endogenous in LNCaP)) (UniProt Q15185).
T1 sequence: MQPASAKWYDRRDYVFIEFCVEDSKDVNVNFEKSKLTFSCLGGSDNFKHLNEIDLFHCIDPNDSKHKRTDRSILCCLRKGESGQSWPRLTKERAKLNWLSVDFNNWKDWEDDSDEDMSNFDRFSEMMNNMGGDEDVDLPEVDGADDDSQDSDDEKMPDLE
Description: co-IP.

No constants are given. Whether binding was seen depends on the method and setting. In cells and extracts the contact can be indirect. Some results given as binding are weak or reduced against the parent protein; the word gives no strength.

On to “androgen receptor (AR) (from UniProt P10275 1-920)”, for which the binding entry is on record as “binds”.

In the case of “histone acetyltransferase KAT2A (from UniProt Q92830 1-837) (enzyme)”, the binding entry was “binds”.
